The results are deposited in PubChem (AID504749; NCATS, 2011).

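A panel of P. falciparum strains inside erythrocytes is exposed to compounds for three days, then a DNA-binding dye reports the amount of parasite DNA. Each compound was titrated across a series from about 0.000037 to 29 µM. The number is the fitted AC50, the concentration giving a half-maximal change in signal; a lower value means higher potency, whether the curve shows a decrease or an increase. Calls follow the curve class and fit quality: every row here is inconclusive, covering signal-raising curves and weak, poorly fitted, partial or highest-dose-only inhibition curves.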

Values are in µM. Every entry below has the call inconclusive. Only part of the assay is shown, chiefly results filed as inconclusive. A potency from a partial, single-point or poor curve is only a rough figure.

CN1CCC(=C2c3ccccc3CC(=O)c3sccc32)CC1 [P93_24] gave Potency 6.31 µM (inhibitor, partial curve). With CN1CCC(=C2c3ccccc3CC(=O)c3sccc32)CC1 [ATS189] the assay gave Potency 4.467 µM (inhibitor, partial curve). Result for CN1CCCC(n2nc(Cc3ccc(Cl)cc3)c3ccccc3c2=O)CC1 (stereo unspecified) [GB4] was Potency 7.569 µM (inhibitor, partial curve). CN1CCCC(n2nc(Cc3ccc(Cl)cc3)c3ccccc3c2=O)CC1 (stereo unspecified) [CP201] read Potency 10.69 µM (inhibitor, partial curve, poor fit). Result for CN1CCCC(n2nc(Cc3ccc(Cl)cc3)c3ccccc3c2=O)CC1 (stereo unspecified) [PC26] was Potency 13.46 µM (inhibitor, single point). With CN1CCCC(n2nc(Cc3ccc(Cl)cc3)c3ccccc3c2=O)CC1 (stereo unspecified) [AS120] the assay gave Potency 11.22 µM (inhibitor, single point). Result for CN1CCCC(n2nc(Cc3ccc(Cl)cc3)c3ccccc3c2=O)CC1 (stereo unspecified) [CP215] was Potency 21.33 µM (inhibitor, partial curve, poor fit).

For CN1CCCC(n2nc(Cc3ccc(Cl)cc3)c3ccccc3c2=O)CC1 (stereo unspecified) [ATS95] the result was Potency 15.85 µM (inhibitor, single point). With CN1CCCC(n2nc(Cc3ccc(Cl)cc3)c3ccccc3c2=O)CC1 (stereo unspecified) [CP265] the assay gave Potency 17.78 µM (inhibitor, single point). With CN1CCCC(n2nc(Cc3ccc(Cl)cc3)c3ccccc3c2=O)CC1 (stereo unspecified) [CP237] the assay gave Potency 8.912 µM (inhibitor, partial curve). Result for CN1CCCC(n2nc(Cc3ccc(Cl)cc3)c3ccccc3c2=O)CC1 (stereo unspecified) [TAB165] was Potency 7.08 µM (inhibitor, partial curve, poor fit). CN1CCCC(n2nc(Cc3ccc(Cl)cc3)c3ccccc3c2=O)CC1 (stereo unspecified) [CP291] read Potency 16.94 µM (inhibitor, partial curve, poor fit). For CN1CCCC(n2nc(Cc3ccc(Cl)cc3)c3ccccc3c2=O)CC1 (stereo unspecified) [PC15] the result was Potency 12.59 µM (inhibitor, single point). Result for CN1CCCC(n2nc(Cc3ccc(Cl)cc3)c3ccccc3c2=O)CC1 (stereo unspecified) [AA1029] was Potency 10 µM (inhibitor, single point).

CN1CCCC(n2nc(Cc3ccc(Cl)cc3)c3ccccc3c2=O)CC1 (stereo unspecified) [PAD] read Potency 8.912 µM (inhibitor, single point). CN1CCCC(n2nc(Cc3ccc(Cl)cc3)c3ccccc3c2=O)CC1 (stereo unspecified) [CP260] gave Potency 11.22 µM (inhibitor, single point). CN1CCCC(n2nc(Cc3ccc(Cl)cc3)c3ccccc3c2=O)CC1 (stereo unspecified) [SC27B] gave Potency 12.59 µM (inhibitor, partial curve, poor fit). With CN1CCCC(n2nc(Cc3ccc(Cl)cc3)c3ccccc3c2=O)CC1 (stereo unspecified) [CP286] the assay gave Potency 11.22 µM (inhibitor, single point). CN1CCCC(n2nc(Cc3ccc(Cl)cc3)c3ccccc3c2=O)CC1 (stereo unspecified) [TAB113] gave Potency 10 µM (inhibitor, partial curve, poor fit).

The last 2 entries again:

structure,tested on / at,Potency (µM),remark
CN1CCCC(n2nc(Cc3ccc(Cl)cc3)c3ccccc3c2=O)CC1 (stereo unspecified),CP286,11.22,"inhibitor, single point"
CN1CCCC(n2nc(Cc3ccc(Cl)cc3)c3ccccc3c2=O)CC1 (stereo unspecified),TAB113,10,"inhibitor, partial curve, poor fit"